Laboratory results: publication PMC7791120
No constants are given. Whether binding was seen depends on the method and setting. Binding seen in cells or lysates may run through a third protein.

The chains behind the UniProt entries cited, without tags or fusion partners. Residues count along the entry.
UniProt P28074, residues 60-263: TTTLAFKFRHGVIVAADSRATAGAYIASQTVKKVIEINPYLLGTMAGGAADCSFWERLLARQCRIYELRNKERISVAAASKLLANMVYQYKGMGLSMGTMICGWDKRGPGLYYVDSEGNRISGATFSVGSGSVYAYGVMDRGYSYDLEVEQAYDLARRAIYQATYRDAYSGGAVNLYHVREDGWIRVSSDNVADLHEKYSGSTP

Molecular target: T1, Tribbles homolog 2 (TRIB2), endogenous (human (endogenous in Bel-7402)) (UniProt Q92519)
T1 sequence: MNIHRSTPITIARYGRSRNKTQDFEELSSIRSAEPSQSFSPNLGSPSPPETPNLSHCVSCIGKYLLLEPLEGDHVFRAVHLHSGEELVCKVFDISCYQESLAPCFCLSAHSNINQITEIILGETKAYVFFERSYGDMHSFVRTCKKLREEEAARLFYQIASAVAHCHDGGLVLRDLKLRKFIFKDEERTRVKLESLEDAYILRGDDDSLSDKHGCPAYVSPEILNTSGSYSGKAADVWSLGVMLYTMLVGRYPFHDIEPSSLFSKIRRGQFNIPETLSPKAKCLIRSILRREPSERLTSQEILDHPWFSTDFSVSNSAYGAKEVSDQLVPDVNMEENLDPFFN
Test: proximity ligation; Duolink in situ PLA on cells fixed in 4% paraformaldehyde, primary antibodies to the two proteins; Bel-7402 and SMMC-7721 named for PCBP2 with PSMB5

## proteasome 20S subunit beta 5 (PSMB5), endogenous (from UniProt P28074 60-263)
  binding: no binding
